The other results are listed elsewhere or left out.
compound: C[C@H](C1=CC=C(C=C1)C(=O)NC2=C3C=CNC3=NC=C2)N; assay: log2 fold change, soluble protein after heating vs DMSO (PISA); higher = thermal stabilisation; K562 lysate, 10 uM; active = over 0.2 and 3.5 SD of the protein, either way, in both replicates (recomputed)
In short: (§1)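 The values are log-two fold changes in thermal stability compared with solvent controls and come from duplicates. They were obtained by TMTpro 16plex LC-MS/MS, with channel sums equalised, on the supernatant after 21,000xg for 90 min. That supernatant came from crude K562 extract at 1 mg/mL protein treated with 10 μM compound for 30 min, heated for 3 min across 48°C-58°C, pooled and brought to 0.5% NP-40 at 4°C.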

Protein sequences, listed by entry. Tags and fused reporters are not part of them. Lines headed by an entry give the natural chain unless they say otherwise; changes in a name come on top.
UniProt Q96HR9: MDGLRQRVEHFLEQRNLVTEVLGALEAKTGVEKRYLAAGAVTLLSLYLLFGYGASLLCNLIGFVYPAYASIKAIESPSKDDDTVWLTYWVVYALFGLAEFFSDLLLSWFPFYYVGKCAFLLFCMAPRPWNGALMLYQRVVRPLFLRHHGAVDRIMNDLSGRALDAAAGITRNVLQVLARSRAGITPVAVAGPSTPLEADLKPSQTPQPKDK
UniProt Q96I51, whole entry, looked up: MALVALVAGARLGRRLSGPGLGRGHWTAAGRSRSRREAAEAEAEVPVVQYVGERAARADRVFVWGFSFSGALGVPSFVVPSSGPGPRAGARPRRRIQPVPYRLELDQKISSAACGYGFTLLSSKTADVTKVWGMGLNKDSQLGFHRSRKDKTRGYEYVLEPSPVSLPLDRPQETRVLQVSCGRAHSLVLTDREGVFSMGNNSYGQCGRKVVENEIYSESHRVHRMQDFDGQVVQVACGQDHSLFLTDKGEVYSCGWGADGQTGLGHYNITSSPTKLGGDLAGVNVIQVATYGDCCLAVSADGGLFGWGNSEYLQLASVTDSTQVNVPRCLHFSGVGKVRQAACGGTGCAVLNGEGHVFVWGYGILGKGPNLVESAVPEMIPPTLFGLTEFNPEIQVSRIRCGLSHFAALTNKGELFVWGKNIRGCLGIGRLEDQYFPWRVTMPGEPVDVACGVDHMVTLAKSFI
UniProt Q9P2R6: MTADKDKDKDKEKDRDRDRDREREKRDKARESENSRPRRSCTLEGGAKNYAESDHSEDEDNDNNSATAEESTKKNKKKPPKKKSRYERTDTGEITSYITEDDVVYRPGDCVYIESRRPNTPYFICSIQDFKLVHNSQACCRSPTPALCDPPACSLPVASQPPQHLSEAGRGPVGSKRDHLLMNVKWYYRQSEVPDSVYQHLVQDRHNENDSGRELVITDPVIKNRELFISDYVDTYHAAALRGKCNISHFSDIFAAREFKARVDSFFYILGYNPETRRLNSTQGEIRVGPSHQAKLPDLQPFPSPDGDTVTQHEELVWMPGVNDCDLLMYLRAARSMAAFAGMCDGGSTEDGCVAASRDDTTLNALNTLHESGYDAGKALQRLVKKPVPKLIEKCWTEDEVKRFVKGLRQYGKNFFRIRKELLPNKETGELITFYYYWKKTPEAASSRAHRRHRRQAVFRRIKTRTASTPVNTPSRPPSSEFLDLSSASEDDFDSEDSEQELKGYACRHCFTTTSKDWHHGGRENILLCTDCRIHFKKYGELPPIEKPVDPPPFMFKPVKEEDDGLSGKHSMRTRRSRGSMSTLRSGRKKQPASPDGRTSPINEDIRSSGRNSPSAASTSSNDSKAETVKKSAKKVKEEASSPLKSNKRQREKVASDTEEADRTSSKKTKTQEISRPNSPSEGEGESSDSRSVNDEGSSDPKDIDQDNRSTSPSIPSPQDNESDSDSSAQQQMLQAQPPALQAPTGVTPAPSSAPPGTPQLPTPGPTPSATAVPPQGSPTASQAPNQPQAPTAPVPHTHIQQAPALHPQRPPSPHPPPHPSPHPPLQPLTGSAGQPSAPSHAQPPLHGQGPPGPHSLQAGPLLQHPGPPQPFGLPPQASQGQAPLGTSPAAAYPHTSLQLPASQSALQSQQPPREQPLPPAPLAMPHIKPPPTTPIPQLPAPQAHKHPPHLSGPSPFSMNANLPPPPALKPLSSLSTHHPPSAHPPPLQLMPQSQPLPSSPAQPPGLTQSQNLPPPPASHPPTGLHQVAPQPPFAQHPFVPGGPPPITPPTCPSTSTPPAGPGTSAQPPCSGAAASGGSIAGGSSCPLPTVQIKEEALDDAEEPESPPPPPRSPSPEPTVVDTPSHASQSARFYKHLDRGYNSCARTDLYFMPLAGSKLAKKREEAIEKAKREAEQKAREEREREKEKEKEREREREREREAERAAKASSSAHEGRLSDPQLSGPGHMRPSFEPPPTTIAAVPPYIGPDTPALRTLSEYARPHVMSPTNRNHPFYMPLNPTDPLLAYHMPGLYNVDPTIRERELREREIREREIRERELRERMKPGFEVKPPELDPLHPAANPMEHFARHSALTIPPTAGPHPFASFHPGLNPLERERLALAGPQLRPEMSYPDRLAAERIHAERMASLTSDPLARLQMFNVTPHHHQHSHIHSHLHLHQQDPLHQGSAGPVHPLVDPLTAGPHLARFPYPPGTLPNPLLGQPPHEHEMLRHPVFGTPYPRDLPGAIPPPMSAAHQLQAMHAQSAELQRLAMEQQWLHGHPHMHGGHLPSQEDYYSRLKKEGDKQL
UniProt P53805: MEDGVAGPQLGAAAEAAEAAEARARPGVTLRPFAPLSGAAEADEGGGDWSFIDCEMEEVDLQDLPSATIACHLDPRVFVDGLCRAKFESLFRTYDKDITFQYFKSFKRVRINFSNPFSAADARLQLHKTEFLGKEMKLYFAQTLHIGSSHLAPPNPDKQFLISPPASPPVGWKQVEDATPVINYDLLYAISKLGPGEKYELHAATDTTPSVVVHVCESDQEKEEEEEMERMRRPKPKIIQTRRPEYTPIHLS
UniProt Q96EV2: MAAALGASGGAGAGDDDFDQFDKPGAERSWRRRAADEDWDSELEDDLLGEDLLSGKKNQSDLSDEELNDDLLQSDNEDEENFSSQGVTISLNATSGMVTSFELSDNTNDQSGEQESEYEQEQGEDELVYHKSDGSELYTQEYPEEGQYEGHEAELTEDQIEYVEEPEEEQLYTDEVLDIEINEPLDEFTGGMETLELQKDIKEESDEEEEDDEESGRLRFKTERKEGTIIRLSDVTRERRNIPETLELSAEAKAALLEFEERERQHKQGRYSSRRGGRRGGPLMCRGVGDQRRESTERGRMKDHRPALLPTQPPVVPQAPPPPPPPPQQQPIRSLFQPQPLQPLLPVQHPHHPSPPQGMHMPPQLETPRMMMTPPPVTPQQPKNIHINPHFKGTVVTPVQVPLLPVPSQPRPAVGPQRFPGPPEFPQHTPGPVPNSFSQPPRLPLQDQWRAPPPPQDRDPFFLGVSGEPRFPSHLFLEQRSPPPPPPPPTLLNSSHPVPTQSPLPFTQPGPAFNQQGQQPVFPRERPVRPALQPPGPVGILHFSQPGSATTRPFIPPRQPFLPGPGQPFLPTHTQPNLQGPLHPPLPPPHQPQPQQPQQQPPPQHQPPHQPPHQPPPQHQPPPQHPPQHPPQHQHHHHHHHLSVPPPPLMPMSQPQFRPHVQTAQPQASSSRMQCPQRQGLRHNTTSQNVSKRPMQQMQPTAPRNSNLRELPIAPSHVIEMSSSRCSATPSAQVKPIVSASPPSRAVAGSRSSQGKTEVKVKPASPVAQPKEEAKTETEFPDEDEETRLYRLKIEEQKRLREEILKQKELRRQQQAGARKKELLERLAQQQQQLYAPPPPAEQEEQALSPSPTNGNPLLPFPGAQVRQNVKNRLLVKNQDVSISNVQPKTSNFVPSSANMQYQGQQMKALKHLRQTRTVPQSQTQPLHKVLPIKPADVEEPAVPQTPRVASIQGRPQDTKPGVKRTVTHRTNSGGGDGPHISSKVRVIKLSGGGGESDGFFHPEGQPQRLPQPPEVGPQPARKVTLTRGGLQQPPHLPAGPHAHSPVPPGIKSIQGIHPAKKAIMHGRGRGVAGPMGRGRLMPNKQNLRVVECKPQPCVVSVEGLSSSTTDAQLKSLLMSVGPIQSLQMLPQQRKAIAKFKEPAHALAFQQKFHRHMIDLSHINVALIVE
UniProt Q9NW13: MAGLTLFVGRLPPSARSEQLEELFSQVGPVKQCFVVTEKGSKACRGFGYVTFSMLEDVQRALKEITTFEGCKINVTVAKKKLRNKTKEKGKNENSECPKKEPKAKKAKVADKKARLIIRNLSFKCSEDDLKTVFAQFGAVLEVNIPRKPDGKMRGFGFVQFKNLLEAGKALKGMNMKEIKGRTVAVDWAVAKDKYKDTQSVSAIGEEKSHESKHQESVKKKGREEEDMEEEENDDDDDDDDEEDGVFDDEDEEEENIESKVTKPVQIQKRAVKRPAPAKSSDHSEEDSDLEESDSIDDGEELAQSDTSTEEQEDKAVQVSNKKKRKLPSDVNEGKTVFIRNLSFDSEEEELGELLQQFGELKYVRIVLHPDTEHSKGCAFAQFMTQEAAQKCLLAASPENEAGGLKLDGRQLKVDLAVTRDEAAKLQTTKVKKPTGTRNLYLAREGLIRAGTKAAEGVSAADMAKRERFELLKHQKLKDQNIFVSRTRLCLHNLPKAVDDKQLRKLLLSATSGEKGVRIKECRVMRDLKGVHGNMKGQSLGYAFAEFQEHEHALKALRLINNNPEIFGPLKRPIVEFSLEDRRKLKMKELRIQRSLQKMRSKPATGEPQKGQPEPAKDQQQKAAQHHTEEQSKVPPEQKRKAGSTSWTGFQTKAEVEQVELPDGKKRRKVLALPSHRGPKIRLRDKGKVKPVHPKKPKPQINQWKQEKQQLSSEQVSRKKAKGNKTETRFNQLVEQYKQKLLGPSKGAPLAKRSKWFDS
UniProt P51606: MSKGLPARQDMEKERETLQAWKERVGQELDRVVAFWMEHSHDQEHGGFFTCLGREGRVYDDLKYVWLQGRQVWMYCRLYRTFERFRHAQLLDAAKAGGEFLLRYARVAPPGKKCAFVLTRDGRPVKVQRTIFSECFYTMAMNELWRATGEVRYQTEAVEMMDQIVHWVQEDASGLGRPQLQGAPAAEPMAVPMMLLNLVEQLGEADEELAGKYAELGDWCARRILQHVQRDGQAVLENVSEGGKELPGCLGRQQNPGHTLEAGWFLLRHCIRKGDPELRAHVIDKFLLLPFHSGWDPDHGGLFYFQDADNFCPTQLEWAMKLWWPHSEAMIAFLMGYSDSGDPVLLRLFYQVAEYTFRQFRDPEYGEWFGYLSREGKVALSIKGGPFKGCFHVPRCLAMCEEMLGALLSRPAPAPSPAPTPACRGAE
UniProt O00287: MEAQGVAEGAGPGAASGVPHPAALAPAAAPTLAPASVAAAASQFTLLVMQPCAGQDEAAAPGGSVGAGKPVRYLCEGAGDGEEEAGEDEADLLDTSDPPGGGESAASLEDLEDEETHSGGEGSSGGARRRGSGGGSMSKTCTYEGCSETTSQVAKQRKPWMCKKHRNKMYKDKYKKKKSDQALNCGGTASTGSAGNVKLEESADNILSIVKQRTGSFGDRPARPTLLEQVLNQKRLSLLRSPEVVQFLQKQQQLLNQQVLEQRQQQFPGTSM
UniProt Q96D71: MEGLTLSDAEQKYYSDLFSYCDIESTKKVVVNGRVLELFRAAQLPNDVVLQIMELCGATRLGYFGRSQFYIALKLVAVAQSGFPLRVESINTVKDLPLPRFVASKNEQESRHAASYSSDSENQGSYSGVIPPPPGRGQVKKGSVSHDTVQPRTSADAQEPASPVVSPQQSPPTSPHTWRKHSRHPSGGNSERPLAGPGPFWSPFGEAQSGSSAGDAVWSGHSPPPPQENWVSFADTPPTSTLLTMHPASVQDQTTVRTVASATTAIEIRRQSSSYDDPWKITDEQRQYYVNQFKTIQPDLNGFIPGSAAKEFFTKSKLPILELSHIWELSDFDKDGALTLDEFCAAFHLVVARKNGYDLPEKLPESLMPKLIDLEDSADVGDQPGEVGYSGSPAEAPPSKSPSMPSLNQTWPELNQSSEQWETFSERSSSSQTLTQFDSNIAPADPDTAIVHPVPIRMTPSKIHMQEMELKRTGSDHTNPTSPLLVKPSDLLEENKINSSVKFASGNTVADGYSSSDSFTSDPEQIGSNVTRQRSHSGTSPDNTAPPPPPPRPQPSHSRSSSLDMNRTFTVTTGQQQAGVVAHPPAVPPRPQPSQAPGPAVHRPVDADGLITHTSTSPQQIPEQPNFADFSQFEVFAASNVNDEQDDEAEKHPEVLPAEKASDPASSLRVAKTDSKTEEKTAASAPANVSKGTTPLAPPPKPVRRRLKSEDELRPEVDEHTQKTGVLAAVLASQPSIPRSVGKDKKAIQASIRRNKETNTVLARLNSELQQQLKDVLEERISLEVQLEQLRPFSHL
UniProt P98179: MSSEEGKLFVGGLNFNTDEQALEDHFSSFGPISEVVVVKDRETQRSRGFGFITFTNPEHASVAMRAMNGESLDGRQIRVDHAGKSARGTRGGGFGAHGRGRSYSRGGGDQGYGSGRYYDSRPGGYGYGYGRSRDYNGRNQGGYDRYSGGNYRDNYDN
UniProt Q96D15: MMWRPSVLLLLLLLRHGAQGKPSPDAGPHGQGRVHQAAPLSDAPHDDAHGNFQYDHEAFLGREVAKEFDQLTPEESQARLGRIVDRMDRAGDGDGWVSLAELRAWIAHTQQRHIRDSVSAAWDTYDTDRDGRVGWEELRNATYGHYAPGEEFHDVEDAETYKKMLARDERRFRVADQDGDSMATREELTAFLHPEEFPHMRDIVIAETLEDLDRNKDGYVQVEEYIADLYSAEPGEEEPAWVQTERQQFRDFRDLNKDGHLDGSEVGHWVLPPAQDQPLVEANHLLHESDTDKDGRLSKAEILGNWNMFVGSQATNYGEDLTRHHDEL
UniProt Q8TAC1: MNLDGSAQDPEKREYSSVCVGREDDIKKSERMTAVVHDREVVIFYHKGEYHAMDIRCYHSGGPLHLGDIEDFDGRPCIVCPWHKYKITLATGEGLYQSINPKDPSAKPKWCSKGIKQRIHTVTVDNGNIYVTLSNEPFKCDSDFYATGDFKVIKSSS

log2 fold change, inactive:
REEP6 (UniProt Q96HR9) -0.269
RCC1L (UniProt Q96I51) -0.025
RDH10 (UniProt Q8IZV5) -0.039
RERE (UniProt Q9P2R6) -0.162
RCAN1 (UniProt P53805) -0.088
RARS2 (UniProt Q5T160) 0.019
RGS10 (UniProt O43665) 0.081
RFX5 (UniProt P48382) 0.016

compound: C[C@H](Nc1ncnc2nc[nH]c12)c1cc2cccc(Cl)c2c(=O)n1-c1ccccc1 [duvelisib]; assay: as above
In short: as §1

log2 fold change, inactive:
RBL1 (UniProt P28749) -0.055
RBBP4 (UniProt Q09028) 0.006
RCOR1 (UniProt Q9UKL0) -0.004
RBM33 (UniProt Q96EV2) -0.039
RFX1 (UniProt P22670) -0.008
RBM28 (UniProt Q9NW13) -0.022
RAVER1 (UniProt E9PAU2) -0.021
RCSD1 (UniProt Q6JBY9) 0.003
RBM39 (UniProt Q14498) 0.02
RFT1 (UniProt Q96AA3) -0.025
RENBP (UniProt P51606) -0.046
RECQL5 (UniProt O94762) 0.029
RELN (UniProt P78509) 0.002
RFXAP (UniProt O00287) -0.05
RASA3 (UniProt Q14644) 0.103
REPS1 (UniProt Q96D71) -0.01
RBM3 (UniProt P98179) 0.081
RCN3 (UniProt Q96D15) -0.092
RASA2 (UniProt Q15283) -0.045
RFESD isoform 2 (UniProt Q8TAC1) 0.03
RBM42 (UniProt Q9BTD8) -0.032
RASA1 (UniProt P20936) -0.05
RBMX (UniProt P38159) 0.033
RCOR3 isoform 3 (UniProt Q9P2K3) -0.029
REEP6 (UniProt Q96HR9) -0.006
RCC1L (UniProt Q96I51) -0.022
RDH10 (UniProt Q8IZV5) 0.022
RERE (UniProt Q9P2R6) 0.032
RCAN1 (UniProt P53805) -0.012
RARS2 (UniProt Q5T160) -0.043
RGS10 (UniProt O43665) -0.005
RFX5 (UniProt P48382) 0.029

— the supplement of paper PMC10849652
